Literature values in US20080031817A1, “Inhibition Of Superoxide Dismutase By Tetrathiomolybdate: Identification Of New Anti-Angiogenic And Antitumor Agents” (priority 2004, published 2008).
For at least one compound, name, drawing or mass did not settle the structure.

Details: cited from earlier work

[SH-].[SH-].[S]=[Mo]=[S] [tetrathiomolybdate (TM) dianion, tetrathiomolybdate]
Ka for copper ions: ~10^8 M^−1
